Experimental data as given in PubChem BioAssay AID504444 (National Center for Advancing Translational Sciences (NCATS), 2011).
The campaign covered roughly 360,000 compounds. About 7,500 (2.1%) were called active. The inconclusive results got no clear call from the source; some entries with a clear call stand among them for comparison. Calls follow the shape of the dose curve; as a rule, active = well fitted inhibition curve with a large enough effect; inconclusive = small, poorly fitted or top-dose-only effect, or effect the other way; inactive = flat fitted curve, though single readings scatter. Potencies beside an inconclusive call are fits to weak or partial responses and may not hold up.
Potency is read from the fitted curve at half-maximal effect.

Test: Nrf2 qHTS screen for inhibitors; also: nearly all actives have a fitted effect of over 60% in size
Details: A549 ARE-Fluc reporter, luciferase luminescence, 18-24 h; series mostly up to 46 µM
In short: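 Nrf2 function is reported as luminescence of an ARE-controlled luciferase in A549 cells. Compounds were tested at several concentrations, and a CellTiter-Fluor read on the same wells flagged cytotoxicity.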
In the case of `Cc1ccc2c(=O)c(C(=O)c3ccc(Cl)cc3)cn(CC(=O)Nc3ccc4c(c3)OCCO4)c2n1`, the Potency is reported as “inactive”.
For `CC12COC3(C(=O)Nc4ccc5ccccc5c4)CC1CCC32C` (centres undefined), the Potency was inconclusive: 13 µM [activator, partial curve].
For `Cc1cccc(C(=O)NCc2nc3ccccc3n2Cc2ccccc2Cl)c1`, the Potency was inconclusive: 32.6 µM [falling, single point].
In the case of `CN(C)CCNC(=O)c1ccccc1`, the Potency is reported as “inactive”.
In the case of `COc1ccc(-n2cc(-c3ccccc3)c3c(N4CC(C)OC(C)C4)ncnc32)cc1` (centres undefined), the Potency is reported as inconclusive: 18.4 µM [falling, single point].
With `CC(=O)Nc1ccc(SCC(=O)c2cc(C)n(-c3ccccc3)c2C)cc1` the Potency was inconclusive: 9.2 µM [activator, partial curve].
In the case of `CN(C)C(=C(C#N)C#N)N1CCN(c2ccc(Cl)c(Cl)c2)CC1`, the Potency is reported as inconclusive: 23.1 µM [falling, partial curve, poor fit].
With `Cc1ccc(NC(=O)C2CCCN2S(=O)(=O)c2cccc3cccnc23)c(C)c1` (centres undefined) the Potency was inconclusive: 3.66 µM [falling, single point].
For `COc1ccc(CCC(=O)Nc2ccc(N3CCOCC3)cc2)cc1`, the Potency was inconclusive: 5.8 µM [falling, partial curve, poor fit].
For `Cc1nn(-c2ccccn2)c2nc(-c3cccs3)cc(C(=O)NCc3ccco3)c12`, the Potency was inconclusive: 14.6 µM [falling, partial curve].
In the case of `Nc1ccc(-c2cnc(N)c(C(=O)c3cccnc3)n2)cn1`, the Potency is reported as active: 14.6 µM.
With `COc1ccccc1Nc1ccc(NC(=O)c2cccc([N+](=O)[O-])c2C)cc1` the Potency was active: 10.3 µM.
With `COc1ccccc1-c1nnc(SC(C(=O)c2c[nH]c3ccccc23)c2ccccc2)n1C` (centres undefined) the Potency was inconclusive: 29.1 µM [falling, single point].
With `O=C(NC1CC1)c1sc2cc(Cl)ccc2c1Cl` the Potency was inconclusive: 23.1 µM [activator, partial curve].
For `Cc1ccc(Nc2nc(N)c3ccccc3n2)cc1C`, the Potency was inconclusive: 5.8 µM [activator, partial curve].
In the case of `O=C(Nc1cccc2ccccc12)N1N=CCC1c1ccccc1` (centres undefined), the Potency is reported as inconclusive: 13 µM [activator, single point].
For `C=CC(=O)NC(C)(C)CCN1CCOCC1`, the Potency was inconclusive: 25.9 µM [activator, single point].
For `COc1ccc(/C=C2\C(=O)NC(=O)c3ccccc32)cc1OC`, the Potency was inconclusive: 6.51 µM [falling, single point].
For `CC(=O)N(C1=C(N)C(=O)c2ccccc2C1=O)c1ccccc1`, the Potency was inconclusive: 9.2 µM [falling, partial curve].
With `Cc1nn(Cc2cccc(C(N)=O)c2)c(C)c1Br` the Potency was inconclusive: 16.4 µM [falling, partial curve].
For `Cc1ccc(C)c(S(=O)(=O)Nc2ccc3oc(C)c(C(=O)O)c3c2)c1`, the Potency was inconclusive: 29.1 µM [activator, single point].
For `CCCOc1cccc(C(=O)NC(=S)Nc2cccc(C(F)(F)F)c2)c1`, the Potency was inconclusive: 29.1 µM [falling, partial curve, poor fit].
In the case of `Cc1ccc(C(=O)COC(=O)C2C3C=CC(C3)C2C(=O)OCC(=O)c2ccc(C)c(C)c2)cc1C` (centres undefined), the Potency is reported as inconclusive: 25.9 µM [falling, single point].
In the case of `Cc1ccc(S(=O)(=O)Nc2ccc(NC(=O)c3cccs3)cc2)cc1`, the Potency is reported as inconclusive: 29.1 µM [falling, partial curve, poor fit].
In the case of `Cc1ccc(S(=O)(=O)C2CS(=O)(=O)CC2O)cc1` (centres undefined), the Potency is reported as inconclusive: 29.1 µM [falling, single point].
In the case of `O=C(Cc1ccccc1)c1ccc2c(c1)OCCO2`, the Potency is reported as inconclusive: 2.31 µM [activator, full curve].
In the case of `Cc1ccccc1OCC(=O)Nc1ccc2nc(SCC(=O)N3CCOCC3)sc2c1`, the Potency is reported as inconclusive: 10.3 µM [falling, partial curve, poor fit].
For `CCn1c(COc2c(C)cccc2C)nnc1SCc1nc2ccccc2c(=O)[nH]1`, the Potency was inconclusive: 18.4 µM [falling, single point].
In the case of `O=C(CN1C(=O)C2(SCC(=O)N2c2ccc(F)c(F)c2)c2ccccc21)Nc1cccc(Cl)c1` (centres undefined), the Potency is reported as inconclusive: 29.1 µM [falling, single point].
In the case of `CC(=O)Nc1ccc(S(=O)(=O)N2CCCC2)cc1`, the Potency is reported as “inactive”.
For `COc1cc(OC)c(/C=N/NC(=O)c2ccc([N+](=O)[O-])cc2)cc1Br`, the Potency was inconclusive: 23.1 µM [falling, partial curve, poor fit].
In the case of `Cc1ccc2[nH]c(=O)c(CN(CCc3ccccc3)C(c3nnnn3Cc3ccco3)C(C)C)cc2c1` (centres undefined), the Potency is reported as inconclusive: 29.1 µM [falling, single point].
For `Cc1ccc(-c2nn(CCC(N)=O)c(=O)c3ccccc23)cc1`, the Potency was inconclusive: 1.03 µM [falling, full curve, poor fit].
With `COc1c(C)cc(NS(=O)(=O)c2ccc3c(c2)OCCO3)cc1C` the Potency was active: 23.1 µM.
For `CCCc1nc2ccccc2c(=O)n1/N=C/c1ccc(O)c(O)c1`, the Potency was inconclusive: 23.1 µM [activator, partial curve].
With `CC(C)CCNc1nc(N2CCCC2)c2c(c1C#N)CCN(C)C2` the Potency was inconclusive: 29.1 µM [falling, single point].
For `O=C(N/N=C/c1ccc(Br)s1)c1ccc([N+](=O)[O-])cc1`, the Potency was inconclusive: 11.6 µM [falling, partial curve, poor fit].
For `CC(C)Cc1cc(C(=O)Nc2cccc(O)c2)no1`, the Potency was inconclusive: 20.6 µM [falling, single point].
For `CCN(CC)S(=O)(=O)c1cc(NC(=O)C(C)N(C)CC(=O)Nc2c(C)cccc2C)ccc1C` (centres undefined), the Potency was active: 16.4 µM.
In the case of `CN(C)c1ccc(N=c2sc3ccccc3n2C)cc1`, the Potency is reported as inconclusive: 25.9 µM [activator, single point].
In the case of `CCc1ccccc1Nc1nc(-c2cccnc2)cs1`, the Potency is reported as inconclusive: 29.1 µM [falling, single point].
In the case of `CC1(C)CC(=O)C2=C(C1)Nc1[nH]n(-c3ccccc3)c(=O)c1C2c1ccc2c(c1)OCO2` (centres undefined), the Potency is reported as inconclusive: 0.82 µM [falling, full curve, poor fit].
With `COc1c(C)cccc1C(=O)Nc1ccc(N2CCN(S(C)(=O)=O)CC2)cc1` the Potency was inconclusive: 0.82 µM [activator, full curve, poor fit].
For `COc1ccc(-n2c(C)cc(C(=O)CN3C(=O)NC4(CCc5ccccc54)C3=O)c2C)cc1` (centres undefined), the Potency was inconclusive: 23.1 µM [falling, single point].
With `N/C(=N\OC(=O)c1ccccc1)c1ccccn1` the Potency was inconclusive: 29.1 µM [activator, single point].
In the case of `COc1ccc(OC)c(S(=O)(=O)Nc2cc(OC)c(Cl)cc2OC)c1`, the Potency is reported as inconclusive: 32.6 µM [falling, partial curve, poor fit].
For `CNc1nnc(-c2cc3cc(Cl)ccc3oc2=O)s1`, the Potency was inconclusive: 10.3 µM [activator, partial curve, poor fit].
For `C=CCn1c(=NC(=O)c2cc(-c3cccs3)nc3ccccc23)sc2cc(S(N)(=O)=O)ccc21`, the Potency was inconclusive: 3.26 µM [activator, partial curve, poor fit].
In the case of `COc1ccc(NC(=O)COC(=O)/C=C/c2cnc3ccccc3n2)cc1`, the Potency is reported as inconclusive: 29.1 µM [activator, single point].
With `Cc1ccc(S(=O)(=O)N2CCCC2)cc1C(=O)NCCN1CCOCC1` the Potency was “inactive”.
In the case of `Cc1cccc(C)c1-n1ncc(C(=O)NCCN2CCN(C)CC2)c1C1CCN(C(=O)OC(C)(C)C)CC1`, the Potency is reported as inconclusive: 29.1 µM [activator, single point].
With `CCOc1ccc(C(=O)NCc2nc(-c3ccc(Cl)cc3)no2)cc1OCC` the Potency was inconclusive: 18.4 µM [falling, single point].
With `Cc1c(NC(=O)c2cnn3c2NC(c2ccc(Br)cc2)CC3C(F)(F)F)c(=O)n(-c2ccccc2)n1C` (centres undefined) the Potency was inconclusive: 8.2 µM [activator, partial curve].
In the case of `S=c1[nH]nc(COc2ccccc2)n1-c1ccc(Cl)cc1`, the Potency is reported as inconclusive: 23.1 µM [falling, single point].
For `COc1ccccc1-c1nnc(SCC(=O)c2ccc(C3CCCCC3)cc2)n1Cc1ccco1`, the Potency was inconclusive: 4.61 µM [activator, single point].
With `COc1ccc(-n2nc(C(=O)NCC(=O)N3CCN(c4ccccc4OC)CC3)c3ccccc3c2=O)cc1OC` the Potency was “inactive”.
With `O=S(=O)(Nc1nc2ccccc2nc1NCC1CCCO1)c1cc(Cl)ccc1Cl` (centres undefined) the Potency was inconclusive: 14.6 µM [falling, partial curve].
With `CCOC(=O)c1cnc2ccc(OC)cc2c1Nc1cccc(C(C)=O)c1` the Potency was active: 16.4 µM.
For `COc1cc(CCNC2=CC(=O)c3ncccc3C2=O)ccc1O`, the Potency was active: 13 µM.
With `COc1ccc(NC(=O)C(=O)c2cn(CC(=O)N3CCCC3)c3ccccc23)cc1` the Potency was inconclusive: 16.4 µM [activator, partial curve].
For `O=C(Cc1ccccc1)N/N=C/c1ccc(OC(=O)/C=C\c2ccco2)cc1`, the Potency was inconclusive: 14.6 µM [activator, single point].
With `O=S(=O)(c1cc(F)ccc1F)N1CCN(c2ncccn2)CC1` the Potency was “inactive”.
For `CC(C)(C)OC(=O)N1CCC(c2c(C(=O)N3CCN(C(=O)c4ccco4)CC3)cnn2-c2ccc(F)cc2F)CC1`, the Potency was “inactive”.
With `O=C(CSc1ccc(/C=N/NC(=O)c2cccc(F)c2)o1)Nc1ccccc1` the Potency was inconclusive: 29.1 µM [activator, single point].
